The values that follow come from PubChem BioAssay AID2685 (National Center for Advancing Translational Sciences (NCATS), 2010).

A short description of the test: qHTS Assay for Lipid Storage Modulators in Drosophila S3 Cells.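 As to cell number change: cells counted by Cell Tracker Red CMTPX staining in the red channel.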 Particulars: BODIPY lipid droplet fluorescence, 18-24 h; for cell number change: measured here: cell count max response, cells fed with added oleic acid. The gist of the method: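 Laser-scanning cytometry quantifies lipid droplet accumulation (500–530 nm total intensity; droplet/cell object ratio) in oleic acid-fed (400 uM added) Drosophila S3 cells treated with a concentration series. 20 uM Triacsin C defined 100% inhibition.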

Where [1] appears, read: measured here: cell number channel AC50, cells fed with added oleic acid.
Setting [2] is: measured here: lipid fluorescence (Fed channel) AC50, cells fed with added oleic acid.

The list shows a part of the results. These are further read-outs of the screen, such as a control signal, another cell line or another target. No call is given for them. Most of these compounds were active or inconclusive in the main read-out, so they are no random draw. The note in brackets gives the kind of curve behind each potency; many fits are weak.

As for `CCn1cc(CN2CCC(n3nccc3NC(=O)CCCc3ccccc3)CC2)cn1`, the cell number change was -1.39%.
Consider `COc1cc2c(cc1OC)C(c1ccc(Br)cc1)NC(=O)C2` (stereo not drawn), for which the cell number change was 42.8%. Moreover, the concentration at half-maximal activity (AC50) under setting [1] is 10.3 µM [rising, partial curve]. Besides, the AC50 under setting [2] is 29.1 µM [rising, single point].
With `O=[N+]([O-])c1ccccc1/C=N/N1CCN(c2ccncc2S(=O)(=O)N2CCCCC2)CC1`, the cell number change is -27.4%.
With `Cc1nn(CCOc2ccccc2)c(=O)n1-c1ccccc1F`, the cell number change is 26.5%. The AC50 under setting [2] is 29.1 µM [rising, single point].
Take `COc1ccccc1NC(=O)C1=C(C)Nc2nnnn2C1c1cccc(C)c1` (stereo not drawn): the half-maximal activity concentration (AC50) under setting [2] was 0.103 µM [falling, single point].
For the molecule `CN(C)S(=O)(=O)c1cccn1-c1ncc(C(F)(F)F)cc1Cl`, the concentration at half-maximal activity (AC50) under setting [2] is 20.6 µM [rising, partial curve].
As to `CN1CCN(c2nc3c(c(=O)n(C)c(=O)n3C)n2Cc2ccc(F)cc2)CC1`, the cell number change was -4.67%. Further, the AC50 under setting [2] was 11.6 µM [rising, single point].
`O=C(CN1CCCC1)N/N=C/c1c(O)ccc2ccccc12`: the cell number change was -11%. Moreover, under setting [2], the half-maximal activity concentration (AC50) was 6.51 µM [rising, single point].
As to `CSc1nnc(SCC#N)s1`, the cell number change turned out to be 30.3%. Moreover, under setting [1], the concentration at half-maximal activity (AC50) is 14.6 µM [rising, single point]. In addition, the AC50 under setting [2] is 16.4 µM [rising, single point].
Take `COc1ccccc1NS(=O)(=O)c1ccc2c(c1)n(C)c(=O)n2C`: the cell number change came to 44.9%. In addition, the AC50 under setting [1] is 0.411 µM [rising, full curve]. Besides, the AC50 under setting [2] was 13 µM [rising, partial curve].
On to `Cc1oc(=O)c(NC(=O)c2cccc(Cl)c2)cc1C(=O)c1ccccc1`, for which the cell number change is -15.5%. Besides, under setting [2], the AC50 is 29.1 µM [falling, partial curve, poor fit].
As to `CCOC(=O)Cn1nc(-c2ccc(F)cc2)oc1=O`, the cell number change amounted to 16.3%.
On to `O=c1ccc(Cc2ccc(Cl)cc2)n[nH]1`, for which the cell number change was found to be 13.1%. Under setting [2], the AC50 is 29.1 µM [falling, single point].
In the case of `CSc1nnc(CNC(=O)c2ccccc2)n1-c1ccc(F)cc1`, the cell number change is -99.2%. For the same molecule, under setting [1], the concentration at half-maximal activity (AC50) is 32.6 µM [falling, partial curve]. The AC50 under setting [2] is 6.51 µM [falling, partial curve, poor fit].
For the molecule `N#CCCn1cc(/C=C2\NC(=S)N(c3ccccc3)C2=O)c(-c2ccc(F)cc2)n1`, the cell number change was -33.1%. Under setting [1], the AC50 is 29.1 µM [falling, single point]. The AC50 under setting [2] is 29.1 µM [falling, single point].
For `Cc1nc2sc(C(c3cccs3)N3CC(C)CC(C)C3)c(O)n2n1` (stereo not drawn), the cell number change was -23.9%. The half-maximal activity concentration (AC50) under setting [2] was 32.6 µM [falling, single point].
`COc1ccc(CN(C)C(=O)CNC(=O)c2ccc3ccccc3c2)c(OC)c1`: the cell number change is -3.42%. For the same molecule, the AC50 under setting [2] was 6.51 µM [rising, single point].
As for `CN(Cc1cccc(F)c1)C(=O)CN1CCN(S(=O)(=O)c2ccc3c(c2)OCCCO3)CC1`, the cell number change is -7.42%. Moreover, the AC50 under setting [1] was 2.31 µM [falling, single point].
With `COc1ccc(-c2c(C#N)c(N)nc3c2CCc2ccccc2-3)cc1OC`, the cell number change is 20.1%. The AC50 under setting [2] was 9.2 µM [rising, partial curve, poor fit].
As for `COc1ccc(-c2nc3n(c(=O)c2C#N)CCS3)cc1OC`, the cell number change was found to be 14.2%. Moreover, under setting [2], the concentration at half-maximal activity (AC50) was 29.1 µM [rising, single point].
On to `O=C(Cc1ccccc1)NC1(Cc2ccc(O)cc2)CCCCC1`, for which the cell number change is 22.6%. The half-maximal activity concentration (AC50) under setting [1] was 0.103 µM [rising, full curve, poor fit].
For the molecule `CCn1ccc(C(=O)Nc2ccc(Cl)cn2)n1`, the cell number change amounted to 35.9%. Moreover, under setting [1], the AC50 was 1.16 µM [rising, full curve, poor fit]. Besides, the AC50 under setting [2] was 2.91 µM [falling, single point].
For the molecule `CN1C(=O)NC(NC(=O)c2ccncc2)(C(F)(F)F)C1=O` (stereo not drawn), the cell number change is -4.74%. In addition, the AC50 under setting [2] is 16.4 µM [falling, single point].
In the case of `Fc1ccc(-c2ccc(/C=N/n3cnnc3)o2)cc1`, under setting [2], the half-maximal activity concentration (AC50) is 4.11 µM [falling, single point].
`O=C(Cn1cnc2ccccc21)Nc1cccc(S(=O)(=O)N2CCCC2)c1`: the cell number change was -30.3%. Further, under setting [1], the AC50 was 11.6 µM [falling, partial curve]. Moreover, the AC50 under setting [2] is 1.3 µM [falling, partial curve].
As for `CCc1nn(C(C)C(=O)NCc2cccc(Cl)c2)c(=O)c2cc3occc3n12` (stereo not drawn), the concentration at half-maximal activity (AC50) under setting [2] was 29.1 µM [falling, single point].
In the case of `CC(=O)Nc1ccc(C(=O)CSc2nnc3scc(-c4ccccc4)n23)cc1`, the cell number change is 20.5%. Further, under setting [1], the AC50 was 0.259 µM [rising, full curve, poor fit].
On to `COc1ccc(C(=O)Nc2ccc(O)cc2C(=O)O)cc1`, for which the cell number change is -19.2%. Besides, the AC50 under setting [2] is 7.94 µM [falling, partial curve].
Turning to `COC(=O)c1ccccc1NC(=O)CSc1nc2c(c(=O)[nH]1)CCC2`, the AC50 runs as follows: under setting [1], 6.51 µM [falling, single point]; under setting [2], 0.58 µM [rising, single point].
In the case of `CCOc1ccc(CNc2ccc(N3CCN(Cc4ccccc4)CC3)cc2)cc1`, the AC50 under setting [2] was 0.82 µM [falling, full curve, poor fit].
Consider `Cc1sc2ncnc(N3CCC(C(=O)Nc4ccc(C#N)cc4)CC3)c2c1C`, for which the cell number change was found to be 28.2%. Moreover, under setting [2], the AC50 is 0.82 µM [rising, partial curve].
With `CCS(=O)(=O)N1CCN(C(=O)c2cccc(OC)c2)CC1`, the cell number change is -0.606%. Moreover, the AC50 under setting [2] was 1.03 µM [falling, full curve].
With `CCN(CC)C(=O)CSc1nc2cc3c(cc2c(=O)n1CCCCCC(=O)NCc1ccc(OC)cc1)OCO3`, the cell number change is -49.8%. In addition, the AC50 under setting [1] is 29.1 µM [falling, single point].
For the molecule `CC(=O)c1ccc(N2CCN(c3ccc(S(=O)(=O)N4CCN(C)CC4)cn3)CC2)cc1`, the cell number change stood at 20.5%. Besides, the AC50 under setting [2] is 6.51 µM [rising, full curve].
For `CC(Oc1cccc(Cl)c1)C(=O)Nc1ccccc1N1CCCC1` (stereo not drawn), under setting [1], the AC50 is 6.51 µM [falling, single point].
In the case of `O=C(NC(=O)c1ccc(Cl)cc1)OC1CCCCC1`, the cell number change was 34%. Further, the concentration at half-maximal activity (AC50) under setting [1] is 5.8 µM [rising, partial curve]. Further, the half-maximal activity concentration (AC50) under setting [2] was 10.3 µM [rising, partial curve].
With `CC1(C(=O)NCc2ccc(Cl)c(Cl)c2)Oc2ccccc2NC1=O` (stereo not drawn), the concentration at half-maximal activity (AC50) was 1.84 µM [rising, partial curve, poor fit] under setting [1] and 2.31 µM [rising, partial curve] under setting [2].
